# Percent effect of library compounds

A: 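Whole-parasite assay of Trypanosoma brucei over 72 hours; the read-out is not stated. Tested at 30 µM. Higher reads as stronger inhibition (inferred: compounds with an IC50 in retests scored well above the rest). Values scatter widely below zero; nearly all retest evidence comes from the higher of the two concentrations used. About 64,000 compounds were tested under these conditions; 1.5% (about 940) showed 50% or more at least once.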
B: 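Cell assay of Leishmania donovani living inside macrophages; the read-out is not stated. Concentration: 30 µM. The record gives no direction; compounds that gave an IC50 in retests scored well above the rest, so higher reads as stronger inhibition. About 69,000 compounds were tested under these conditions; 1.5% (about 1,000) showed 50% or more at least once.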

Results are given as percent effect.
How 0% and 100% were set is not recorded. Most values in the screen are low, and negative values occur.
Compounds were drawn at random from those tested, without regard to their results.

SMILES: FC(F)(F)c1ccccc1CN1CCOC[C@H](Oc2cccnc2)C1
A: 19.12
B: 0.145

SMILES: CN(C)C1CCC2(CCN(Cc3nccn3C)CC2)c2ccccc21.O=C(O)C(F)(F)F.O=C(O)C(F)(F)F (stereo not given)
A: -42.21
B: 15.24

SMILES: CC(C)OCCC(=O)N1CCN(CC(O)c2ccccc2)CC1 (stereo not given)
A: 3.064
B: -9.066

SMILES: CC(=O)N1CCN(c2cnnc(N3CCCC3)c2)CC1
A: -11.27
B: 27.75

SMILES: COc1ccccc1N1CCC(NCc2c(C)noc2C)C1 (stereo not given)
A: -20.42
B: 7.918

SMILES: O=C1NCCN1C1CCCN(Cc2nnc(-c3ccc(F)cc3)o2)C1 (stereo not given)
A: 22.87
B: 20.18

SMILES: CS(=O)(=O)NCc1nnc2n1CCN(Cc1ccc(F)cc1)C2
A: -195.7
B: -7.19

SMILES: CC(C)(C)C(=O)NCCC(=O)NC(C)(C)c1ccc2c(c1)OCCO2
A: 15.18
B: -0.2864

SMILES: CC(C)c1nc(CCNC(=O)NCc2ccnc(N(C)C)c2)cs1
A: 18.04
B: 24.58

SMILES: COc1ccccc1C1(CNCc2ccc(C#N)cc2)CCOCC1
A: 29.93
B: 15.25

SMILES: O=C(Cc1ccc2c(c1)CCC2)N1CCCC1Cn1cccn1 (stereo not given)
A: -0.7426
B: 10.48

SMILES: CC(C)(NC(=O)Nc1cnn(CC2CCCO2)c1)c1nccs1 (stereo not given)
A: -28.35
B: 25.4

SMILES: CCC[C@@H]1CN(S(=O)(=O)c2ccc3[nH]c(=O)[nH]c3c2)C[C@H]1NC(C)=O
A: -62.94
B: 18.19

SMILES: [H][C@]12CCN(c3cc(OC)ncn3)[C@@]1([H])C[C@@H](C(=O)NCC1CC1)O2
A: -6.896
B: -10.86

SMILES: COc1ncccc1NC(=O)c1[nH]nc(C(C)C)c1Br
A: 7.14
B: -20.5

SMILES: Cc1ncsc1C(=O)NCCNC(=O)OC(C)(C)C
A: -10.49
B: 2.351

SMILES: CCn1ccnc1CN1CCCC(CO)(CCCc2ccccc2)C1 (stereo not given)
A: -2.964
B: -1.939

SMILES: CN(CC(O)COc1ccc(C(F)(F)F)cc1)C(=O)Nc1nncs1 (stereo not given)
A: -10.34
B: -2.266

SMILES: Cc1c(-c2c(-c3ccccc3)ncn2[C@H](CO)C(=O)O)cnn1C
A: -11.03
B: 25.35

SMILES: Cc1cc(NC(=O)N2CCN(c3nc(C)c(C)s3)CC2)no1
A: 2.702
B: 10.04

SMILES: CCC(=O)c1ccc(OCC(=O)NC(C)Cc2cc(C)n[nH]2)cc1 (stereo not given)
A: -29.35
B: 22.96

SMILES: COc1cccc(C(=O)NCCCN2CCc3ccccc3C2)c1OC
A: -16.96
B: -6.395

SMILES: O=C(O)C(F)(F)F.[H][C@@]12CCCO[C@]1([H])[C@H](N(C)C)CN2C(=O)Cc1ccsc1
A: -18.41
B: 3.683

SMILES: CC(Nc1cnn(C)c(=O)c1Cl)c1ccc(F)c(F)c1 (stereo not given)
A: -29.47
B: 21.13

Measurements from “University of Dundee, Small-Polar-MMV Screening Library” (2021), ChEMBL document CHEMBL3988442.